Here are results for 4 molecules from article PMC10709353.

Sequences of proteins named here, by UniProt entry; tags and fusion partners are left off. A change or cut given only in a name is not applied to a line headed by its entry.
UniProt Q9H4L4: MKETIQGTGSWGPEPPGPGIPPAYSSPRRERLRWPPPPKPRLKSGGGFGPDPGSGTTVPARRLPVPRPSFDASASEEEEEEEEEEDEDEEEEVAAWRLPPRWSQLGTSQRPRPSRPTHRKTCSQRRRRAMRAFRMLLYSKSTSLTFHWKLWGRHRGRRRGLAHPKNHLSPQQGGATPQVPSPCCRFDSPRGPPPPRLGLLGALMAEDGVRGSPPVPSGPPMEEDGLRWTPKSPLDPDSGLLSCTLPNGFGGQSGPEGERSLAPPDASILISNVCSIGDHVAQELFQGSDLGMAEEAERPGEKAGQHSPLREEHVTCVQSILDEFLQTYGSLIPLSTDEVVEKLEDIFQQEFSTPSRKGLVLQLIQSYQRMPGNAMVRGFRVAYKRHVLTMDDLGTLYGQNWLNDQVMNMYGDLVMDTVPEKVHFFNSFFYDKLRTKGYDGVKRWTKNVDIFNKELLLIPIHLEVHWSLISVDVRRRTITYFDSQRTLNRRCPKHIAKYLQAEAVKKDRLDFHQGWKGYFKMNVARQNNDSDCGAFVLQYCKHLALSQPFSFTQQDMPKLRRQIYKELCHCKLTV

Experiment [1] deals with T1, UTP14A (human (endogenous in HeLa)) (UniProt Q9BVJ6).
T1 sequence: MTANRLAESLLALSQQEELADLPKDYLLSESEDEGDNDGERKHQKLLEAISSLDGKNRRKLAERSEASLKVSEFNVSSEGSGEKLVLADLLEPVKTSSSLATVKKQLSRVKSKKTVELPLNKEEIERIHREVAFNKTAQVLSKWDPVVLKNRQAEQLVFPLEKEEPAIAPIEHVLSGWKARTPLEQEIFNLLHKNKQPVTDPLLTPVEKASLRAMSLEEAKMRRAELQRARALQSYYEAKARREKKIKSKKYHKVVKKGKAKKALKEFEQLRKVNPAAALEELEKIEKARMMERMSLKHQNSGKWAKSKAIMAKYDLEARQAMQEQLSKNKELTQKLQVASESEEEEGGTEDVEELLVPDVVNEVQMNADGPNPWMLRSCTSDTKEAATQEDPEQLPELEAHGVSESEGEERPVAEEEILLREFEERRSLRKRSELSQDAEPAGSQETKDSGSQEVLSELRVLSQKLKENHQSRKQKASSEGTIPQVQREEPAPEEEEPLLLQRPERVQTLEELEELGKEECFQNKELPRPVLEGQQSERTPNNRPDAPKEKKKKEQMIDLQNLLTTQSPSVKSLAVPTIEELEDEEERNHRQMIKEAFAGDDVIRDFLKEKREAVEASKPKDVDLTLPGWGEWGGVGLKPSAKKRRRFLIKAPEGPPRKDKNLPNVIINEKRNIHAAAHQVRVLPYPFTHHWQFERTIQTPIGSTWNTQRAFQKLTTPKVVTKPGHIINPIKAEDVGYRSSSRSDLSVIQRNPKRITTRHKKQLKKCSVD
Briefly: affinity purification with mass spectrometry; IP of endogenous UTP14A (antibody crosslinked to protein A/G beads) against IgG control from HeLa cells transfected for 72 h with siControl, siSENP3, siSENP5 or siSENP3/5; 50 mM HEPES, 150 mM NaCl, 1.5 mM MgCl2, 1 mM EGTA, 10% glycerol, 1% Triton X-100, pH 7.2, 10 mM NEM; four replicates; label-free quantification.

For experiment [2], the target named is FLAG-SENP3^C532S (human) (UniProt Q9H4L4). Briefly: affinity purification with mass spectrometry; anti-FLAG IP of lysates of HEK293T cells transiently expressing FLAG-SENP3^C532S or FLAG-SENP5^C713S against mock control; triplicates; label-free quantification (interactors: log2 ratio >= 1, -log10 p value >= 1.3).

These are yes or no findings as the source states them, for the method shown. Binding seen in cells or lysates may run through a third protein. A yes stands for co-enrichment or nearness to the bait. Other partners may have been found.

B1: NOP14 (protein, UniProt P78316 1-857)
chain: MAKAKKVGARRKASGAPAGARGGPAKANSNPFEVKVNRQKFQILGRKTRHDVGLPGVSRARALRKRTQTLLKEYKERDKSNVFRDKRFGEYNSNMSPEEKMMKRFALEQQRHHEKKSIYNLNEDEELTHYGQSLADIEKHNDIVDSDSDAEDRGTLSAELTAAHFGGGGGLLHKKTQQEGEEREKPKSRKELIEELIAKSKQEKRERQAQREDALELTEKLDQDWKEIQTLLSHKTPKSENRDKKEKPKPDAYDMMVRELGFEMKAQPSNRMKTEAELAKEEQEHLRKLEAERLRRMLGKDEDENVKKPKHMSADDLNDGFVLDKDDRRLLSYKDGKMNVEEDVQEEQSKEASDPESNEEEGDSSGGEDTEESDSPDSHLDLESNVESEEENEKPAKEQRQTPGKGLISGKERAGKATRDELPYTFAAPESYEELRSLLLGRSMEEQLLVVERIQKCNHPSLAEGNKAKLEKLFGFLLEYVGDLATDDPPDLTVIDKLVVHLYHLCQMFPESASDAIKFVLRDAMHEMEEMIETKGRAALPGLDVLIYLKITGLLFPTSDFWHPVVTPALVCLSQLLTKCPILSLQDVVKGLFVCCLFLEYVALSQRFIPELINFLLGILYIATPNKASQGSTLVHPFRALGKNSELLVVSAREDVATWQQSSLSLRWASRLRAPTSTEANHIRLSCLAVGLALLKRCVLMYGSLPSFHAIMGPLQALLTDHLADCSHPQELQELCQSTLTEMESQKQLCRPLTCEKSKPVPLKLFTPRLVKVLEFGRKQGSSKEEQERKRLIHKHKREFKGAVREIRKDNQFLARMQLSEIMERDAERKRKVKQLFNSLATQEGEWKALKRKKFKK
Take B1: the binding result in experiment [1] is “binds”.

B2: UTP14A (protein, UniProt Q9BVJ6 1-771)
chain: MTANRLAESLLALSQQEELADLPKDYLLSESEDEGDNDGERKHQKLLEAISSLDGKNRRKLAERSEASLKVSEFNVSSEGSGEKLVLADLLEPVKTSSSLATVKKQLSRVKSKKTVELPLNKEEIERIHREVAFNKTAQVLSKWDPVVLKNRQAEQLVFPLEKEEPAIAPIEHVLSGWKARTPLEQEIFNLLHKNKQPVTDPLLTPVEKASLRAMSLEEAKMRRAELQRARALQSYYEAKARREKKIKSKKYHKVVKKGKAKKALKEFEQLRKVNPAAALEELEKIEKARMMERMSLKHQNSGKWAKSKAIMAKYDLEARQAMQEQLSKNKELTQKLQVASESEEEEGGTEDVEELLVPDVVNEVQMNADGPNPWMLRSCTSDTKEAATQEDPEQLPELEAHGVSESEGEERPVAEEEILLREFEERRSLRKRSELSQDAEPAGSQETKDSGSQEVLSELRVLSQKLKENHQSRKQKASSEGTIPQVQREEPAPEEEEPLLLQRPERVQTLEELEELGKEECFQNKELPRPVLEGQQSERTPNNRPDAPKEKKKKEQMIDLQNLLTTQSPSVKSLAVPTIEELEDEEERNHRQMIKEAFAGDDVIRDFLKEKREAVEASKPKDVDLTLPGWGEWGGVGLKPSAKKRRRFLIKAPEGPPRKDKNLPNVIINEKRNIHAAAHQVRVLPYPFTHHWQFERTIQTPIGSTWNTQRAFQKLTTPKVVTKPGHIINPIKAEDVGYRSSSRSDLSVIQRNPKRITTRHKKQLKKCSVD
As to B2, the binding result in experiment [2] is given as “binds”.

B3: TSR1 (protein, UniProt Q2NL82 1-804)
chain: MAAHRPGPLKQQNKAHKGGRHRGRGSAQRDGKGRLALKTLSKKVRKELSRVDQRHRASQLRKQKKEAVLAEKRQLGGKDGPPHQVLVVPLHSRISLPEAMQLLQDRDTGTVHLNELGNTQNFMLLCPRLKHRWFFTSARPGDLHVVLDMAKVADTILFLLDPLEGWDSTGDYCLSCLFAQGLPTYTLAVQGISGLPLKKQIDTRKKLSKAVEKRFPHDKLLLLDTQQEAGMLLRQLANQKQQHLAFRDRRAYLFAHAVDFVPSEENNLVGTLKISGYVRGQTLNVNRLLHIVGYGDFQMKQIDAPGDPFPLNPRGIKPQKDPDMAMEICATDAVDDMEEGLKVLMKADPGRQESLQAEVIPDPMEGEQTWPTEEELSEAKDFLKESSKVVKKVPKGTSSYQAEWILDGGSQSGGEGDEYEYDDMEHEDFMEEESQDESSEEEEEYETMTIGESVHDDLYDKKVDEEAEAKMLEKYKQERLEEMFPDEVDTPRDVAARIRFQKYRGLKSFRTSPWDPKENLPQDYARIFQFQNFTNTRKSIFKEVEEKEVEGAEVGWYVTLHVSEVPVSVVECFRQGTPLIAFSLLPHEQKMSVLNMVVRRDPGNTEPVKAKEELIFHCGFRRFRASPLFSQHTAADKHKLQRFLTADMALVATVYAPITFPPASVLLFKQKSNGMHSLIATGHLMSVDPDRMVIKRVVLSGHPFKIFTKMAVVRYMFFNREDVLWFKPVELRTKWGRRGHIKEPLGTHGHMKCSFDGKLKSQDTVLMNLYKRVFPKWTYDPYVPEPVPWLKSEISSTVPQGGME
For the molecule B3, in experiment [1], the binding entry is given as “binds”.

B4: RRP12 (protein, UniProt Q5JTH9 1-1297)
chain: MGRSGKLPSGVSAKLKRWKKGHSSDSNPAICRHRQAARSRFFSRPSGRSDLTVDAVKLHNELQSGSLRLGKSEAPETPMEEEAELVLTEKSSGTFLSGLSDCTNVTFSKVQRFWESNSAAHKEICAVLAAVTEVIRSQGGKETETEYFAALMTTMEAVESPESLAAVAYLLNLVLKRVPSPVLIKKFSDTSKAFMDIMSAQASSGSTSVLRWVLSCLATLLRKQDLEAWGYPVTLQVYHGLLSFTVHPKPKIRKAAQHGVCSVLKGSEFMFEKAPAHHPAAISTAKFCIQEIEKSGGSKEATTTLHMLTLLKDLLPCFPEGLVKSCSETLLRVMTLSHVLVTACAMQAFHSLFHARPGLSTLSAELNAQIITALYDYVPSENDLQPLLAWLKVMEKAHINLVRLQWDLGLGHLPRFFGTAVTCLLSPHSQVLTAATQSLKEILKECVAPHMADIGSVTSSASGPAQSVAKMFRAVEEGLTYKFHAAWSSVLQLLCVFFEACGRQAHPVMRKCLQSLCDLRLSPHFPHTAALDQAVGAAVTSMGPEVVLQAVPLEIDGSEETLDFPRSWLLPVIRDHVQETRLGFFTTYFLPLANTLKSKAMDLAQAGSTVESKIYDTLQWQMWTLLPGFCTRPTDVAISFKGLARTLGMAISERPDLRVTVCQALRTLITKGCQAEADRAEVSRFAKNFLPILFNLYGQPVAAGDTPAPRRAVLETIRTYLTITDTQLVNSLLEKASEKVLDPASSDFTRLSVLDLVVALAPCADEAAISKLYSTIRPYLESKAHGVQKKAYRVLEEVCASPQGPGALFVQSHLEDLKKTLLDSLRSTSSPAKRPRLKCLLHIVRKLSAEHKEFITALIPEVILCTKEVSVGARKNAFALLVEMGHAFLRFGSNQEEALQCYLVLIYPGLVGAVTMVSCSILALTHLLFEFKGLMGTSTVEQLLENVCLLLASRTRDVVKSALGFIKVAVTVMDVAHLAKHVQLVMEAIGKLSDDMRRHFRMKLRNLFTKFIRKFGFELVKRLLPEEYHRVLVNIRKAEARAKRHRALSQAAVEEEEEEEEEEEPAQGKGDSIEEILADSEDEEDNEEEERSRGKEQRKLARQRSRAWLKEGGGDEPLNFLDPKVAQRVLATQPGPGRGRKKDHGFKVSADGRLIIREEADGNKMEEEEGAKGEDEEMADPMEDVIIRNKKHQKLKHQKEAEEEELEIPPQYQAGGSGIHRPVAKKAMPGAEYKAKKAKGDVKKKGRPDPYAYIPLNRSKLNRRKKMKLQGQFKGLVKAARRGSQVGHKNRRKDRRP
Turning to B4, the binding result in experiment [1] was “binds”.
